Test results taken from patent US20220275049A1, “ANTIGENIC POLYPEPTIDES AND METHODS OF USE THEREOF” (AGENUS INC., priority 2019, published 2022).

What was measured:
[1] = target: biotinylated HLA-C*07:01 with β2m (human); assay: AlphaScreen, peptide titrated on biotinylated HLA + b2m; settings: remark: other sources report otherwise
[2] = target: biotinylated HLA-C*07:01 with β2m (human); assay: as above

Binder | binding [1] | binding [2]
SLFGGSVKL (here or on the partner: phosphoserine at 6; biotinylated) [SLFGGsVKL] | binds | 
SLFSPQNTL (phosphoserine at 4) [SLFsPQNTL] |  | binds
VLFSSPPQM (phosphoserine at 5) [VLFSsPPQM] |  | binds
VLLSPVPEL (here or on the partner: phosphoserine at 4; biotinylated) [VLLsPVPEL] | binds | 
RVASPTSGV (here or on the partner: phosphoserine at 4; biotinylated) [RVAsPTSGV] | binds | 
RRSSFLQVF (phosphoserine at 4) [RRSsFLQVF] |  | binds
SIMSPEIQL (phosphoserine at 4) [SIMsPEIQL] |  | binds
SMTRSPPRV (here or on the partner: phosphoserine at 5; biotinylated) [SMTRsPPRV] | no binding | 
VLYSPQMAL (here or on the partner: phosphoserine at 4; biotinylated) [VLYsPQMAL] | no binding | 
VMIGSPKKV (here or on the partner: phosphoserine at 5; biotinylated) [VMIGsPKKV] | no binding | 
TPRSPPLGLI (here or on the partner: phosphoserine at 4; biotinylated) [TPRsPPLGLI] | no binding | 
RQASIELPSM (here or on the partner: phosphoserine at 4; biotinylated) [RQAsIELPSM] | no binding | 
KLIDRTESL (here or on the partner: phosphoserine at 8; biotinylated) [KLIDRTEsL] | no binding | 
GPRSASLLSL (here or on the partner: phosphoserine at 6; phosphoserine at 9; biotinylated) [GPRSAsLLsL] | no binding | 
RPRPVSPSSL (here or on the partner: phosphoserine at 6; biotinylated) [RPRPVsPSSL] | no binding | 

Like-named read-outs stand apart in the source and are kept apart here. These are yes or no findings as the source states them, for the method shown. Binding can be weak; no strength is given.
